Assay results: patent US20200171022A1, “FLT3 INHIBITORS FOR IMPROVING PAIN TREATMENTS BY OPIOIDS” (INSERM (Institut National de la Santé et da la Recherche …, priority 2017, published 2020)
For at least one compound, name, drawing or mass did not settle the structure.

Test system: Male Sprague-Dawley rats
Assay: Morphine-induced mechanical pain hypersensitivity and latent pain sensitization, paw pressure test (Example 6)
Conditions: sunitinib 3 mg/kg i.p. or BDT001 1 mg/kg i.p.; morphine 2 mg/kg, single challenge on D12

With `CCN(CC)CCNC(=O)c1c(C)[nH]c(/C=C2\C(=O)Nc3ccc(F)cc32)c1C` [sunitinib] the “effect on morphine-induced pain hypersensitivity and morphine-revealed latent pain sensitization” value was “completely prevented the development of morphine-induced pain hypersensitivity and morphine-revealed latent pain sensitization”.
